Assay results published in US5904857A, “4-alkyl and aryl semicarbazides as oxygen scavengers” (Nalco Chemical Company, priority 1997, dated 1999).
At least one structure is not confirmed: it was looked up by name or label, or the drawing left a doubt.

Assays:
[1] = Comparative stability study: hydrazine buildup in high amine formulations over days (p-dimethylaminobenzaldehyde method, ASTM D1385-78); format: physicochemical
[2] = Long term stability: hydrazine concentrations in high amine formulations over weeks (procedure of Example 5); format: physicochemical
Text: The procedure described in Example 5 was utilized to study long term stability. […] Thus, they are more advantageous than the conventional carbohydrazide treatment.

[3] = 6% scavenger in 40% cyclohexylamine
[4] = 6% scavenger / 40% CHA (cyclohexylamine)

## NNC(=O)N1CCOCC1 [Carbazoyl morpholine, carbazoyl morpholine]
[1]; [3]
  Hydrazine (ppm) at 0 days: 63 ppm
  Hydrazine (ppm) at 3 days: 89 ppm
  Hydrazine (ppm) at 6 days: 121 ppm
[1]; 6% scavenger in 40% morpholine
  Hydrazine (ppm) at 0 days: 63 ppm
  Hydrazine (ppm) at 3 days: 52 ppm
  Hydrazine (ppm) at 6 days: 57 ppm
[1]; 6% scavenger, no amine
  Hydrazine (ppm) at 0 days: 60 ppm
  Hydrazine (ppm) at 3 days: 48 ppm
  Hydrazine (ppm) at 6 days: 53 ppm
[1]; formulations containing neutralizing amines, compared with carbohydrazide, Table II
  hydrazine buildup versus conventional treatment: produces a much lower amount of undesirable hydrazine than the conventional treatment
[2]; [4]
  Hydrazine (ppm) at 0 weeks: 63 ppm
  Hydrazine (ppm) at 5 weeks: 248 ppm
  Hydrazine (ppm) at 13 weeks: 365 ppm
[2]; 6% scavenger / 40% morpholine
  Hydrazine (ppm) at 0 weeks: 63 ppm
  Hydrazine (ppm) at 5 weeks: 50 ppm
  Hydrazine (ppm) at 13 weeks: 54 ppm
